The values that follow come from the supplement of paper PMC8256030.

The list shows a part of the results. Single values are uncertain here, since repeats match poorly.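 HEK293T cells were given each compound shortly before transfection with a reporter in which red mCherry is followed by the SARS-CoV-2 frameshift element and then GFP in the −1 frame, so GFP appears only after frameshifting.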

The subject of the test is HEK293T. The experiment in a line: percent viability (nuclei count) relative to control; higher = more viable cells. As to conditions: 10 µM; 24 h.
As for `O=C(Oc1ccccc1C(=O)O)c1ccccc1O` [salsalate], the percent viability stood at 363%.

Regarding `N=C(N)c1ccc(OCCCCCCOc2ccc(C(=N)N)cc2)cc1` [hexamidine], the percent viability came to 290%.

Turning to `C=CCNc1nc(NCC=C)nc(N2CCN(C(c3ccc(F)cc3)c3ccc(F)cc3)CC2)n1` [almitrine], the percent viability stood at 176%.

As to `O=S1(=O)CCN(CN2CCS(=O)(=O)NC2)CN1` [taurolidine], the percent viability amounted to 85.7%.

As to `Clc1cccc(C(c2ccc3[nH]cnc3c2)n2ccnc2)c1` (centres undefined) [liarozole], the percent viability stood at 153%.

Consider `COc1ccc2c(c1)C(=O)N(CCc1ccc(S(=O)(=O)NC(=O)NC3CCCCC3)cc1)C(=O)C2(C)C` [gliquidone], for which the percent viability stood at 131%.

As to `CCn1cc(C(=O)O)c(=O)c2cc(F)c(N3CCN(C)CC3)cc21`, the percent viability was determined as 304%.

On to `Cn1cnc([N+](=O)[O-])c1Sc1nc(N)nc2[nH]cnc12` [tiamiprine], for which the percent viability is 34.9%.

For the compound `CC(C)c1ncc([N+](=O)[O-])n1C` [ipronidazole], the percent viability was 104%.

As to `CC(C)(C)NCC(O)CSc1nc(-c2ccc(C(N)=O)s2)cs1` (centres undefined) [arotinolol], the percent viability amounted to 131%.

For the compound `N=C(N)NCc1ccc2c(c1)OCCO2` [guabenxan], the percent viability is 177%.

Turning to `CCC(=O)OCC(=O)[C@@]1(OC(=O)CC)[C@@H](C)C[C@H]2[C@@H]3CCC4=CC(=O)C=C[C@]4(C)[C@@]3(Cl)[C@@H](O)C[C@@]21C` [Vanceril], the percent viability came to 307%.

As for `COC(=O)Nc1nc2cc(OS(=O)(=O)c3ccc(F)cc3)ccc2[nH]1` [luxabendazole], the percent viability is 35.8%.

Consider `C[C@](N)(Cc1ccc(O)cc1)C(=O)O` [metirosine], for which the percent viability worked out at 195%.
